Test [1] concerns the target T1, AT1G49950.3 TRB1 (Arabidopsis thaliana), Q8VWK4.
T1 chain: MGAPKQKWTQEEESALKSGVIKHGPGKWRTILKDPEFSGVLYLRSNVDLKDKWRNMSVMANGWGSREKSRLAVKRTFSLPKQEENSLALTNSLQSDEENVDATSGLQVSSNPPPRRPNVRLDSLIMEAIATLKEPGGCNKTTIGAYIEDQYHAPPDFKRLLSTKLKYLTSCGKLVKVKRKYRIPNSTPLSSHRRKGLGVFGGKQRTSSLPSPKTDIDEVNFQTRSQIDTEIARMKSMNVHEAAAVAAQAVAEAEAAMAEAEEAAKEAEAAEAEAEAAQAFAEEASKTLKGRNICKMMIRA
Kind of test: IP-MS. The following applies: remark: other sources report otherwise.

Amino acid sequences for entries named in this document (tags omitted).
UniProt Q9M658: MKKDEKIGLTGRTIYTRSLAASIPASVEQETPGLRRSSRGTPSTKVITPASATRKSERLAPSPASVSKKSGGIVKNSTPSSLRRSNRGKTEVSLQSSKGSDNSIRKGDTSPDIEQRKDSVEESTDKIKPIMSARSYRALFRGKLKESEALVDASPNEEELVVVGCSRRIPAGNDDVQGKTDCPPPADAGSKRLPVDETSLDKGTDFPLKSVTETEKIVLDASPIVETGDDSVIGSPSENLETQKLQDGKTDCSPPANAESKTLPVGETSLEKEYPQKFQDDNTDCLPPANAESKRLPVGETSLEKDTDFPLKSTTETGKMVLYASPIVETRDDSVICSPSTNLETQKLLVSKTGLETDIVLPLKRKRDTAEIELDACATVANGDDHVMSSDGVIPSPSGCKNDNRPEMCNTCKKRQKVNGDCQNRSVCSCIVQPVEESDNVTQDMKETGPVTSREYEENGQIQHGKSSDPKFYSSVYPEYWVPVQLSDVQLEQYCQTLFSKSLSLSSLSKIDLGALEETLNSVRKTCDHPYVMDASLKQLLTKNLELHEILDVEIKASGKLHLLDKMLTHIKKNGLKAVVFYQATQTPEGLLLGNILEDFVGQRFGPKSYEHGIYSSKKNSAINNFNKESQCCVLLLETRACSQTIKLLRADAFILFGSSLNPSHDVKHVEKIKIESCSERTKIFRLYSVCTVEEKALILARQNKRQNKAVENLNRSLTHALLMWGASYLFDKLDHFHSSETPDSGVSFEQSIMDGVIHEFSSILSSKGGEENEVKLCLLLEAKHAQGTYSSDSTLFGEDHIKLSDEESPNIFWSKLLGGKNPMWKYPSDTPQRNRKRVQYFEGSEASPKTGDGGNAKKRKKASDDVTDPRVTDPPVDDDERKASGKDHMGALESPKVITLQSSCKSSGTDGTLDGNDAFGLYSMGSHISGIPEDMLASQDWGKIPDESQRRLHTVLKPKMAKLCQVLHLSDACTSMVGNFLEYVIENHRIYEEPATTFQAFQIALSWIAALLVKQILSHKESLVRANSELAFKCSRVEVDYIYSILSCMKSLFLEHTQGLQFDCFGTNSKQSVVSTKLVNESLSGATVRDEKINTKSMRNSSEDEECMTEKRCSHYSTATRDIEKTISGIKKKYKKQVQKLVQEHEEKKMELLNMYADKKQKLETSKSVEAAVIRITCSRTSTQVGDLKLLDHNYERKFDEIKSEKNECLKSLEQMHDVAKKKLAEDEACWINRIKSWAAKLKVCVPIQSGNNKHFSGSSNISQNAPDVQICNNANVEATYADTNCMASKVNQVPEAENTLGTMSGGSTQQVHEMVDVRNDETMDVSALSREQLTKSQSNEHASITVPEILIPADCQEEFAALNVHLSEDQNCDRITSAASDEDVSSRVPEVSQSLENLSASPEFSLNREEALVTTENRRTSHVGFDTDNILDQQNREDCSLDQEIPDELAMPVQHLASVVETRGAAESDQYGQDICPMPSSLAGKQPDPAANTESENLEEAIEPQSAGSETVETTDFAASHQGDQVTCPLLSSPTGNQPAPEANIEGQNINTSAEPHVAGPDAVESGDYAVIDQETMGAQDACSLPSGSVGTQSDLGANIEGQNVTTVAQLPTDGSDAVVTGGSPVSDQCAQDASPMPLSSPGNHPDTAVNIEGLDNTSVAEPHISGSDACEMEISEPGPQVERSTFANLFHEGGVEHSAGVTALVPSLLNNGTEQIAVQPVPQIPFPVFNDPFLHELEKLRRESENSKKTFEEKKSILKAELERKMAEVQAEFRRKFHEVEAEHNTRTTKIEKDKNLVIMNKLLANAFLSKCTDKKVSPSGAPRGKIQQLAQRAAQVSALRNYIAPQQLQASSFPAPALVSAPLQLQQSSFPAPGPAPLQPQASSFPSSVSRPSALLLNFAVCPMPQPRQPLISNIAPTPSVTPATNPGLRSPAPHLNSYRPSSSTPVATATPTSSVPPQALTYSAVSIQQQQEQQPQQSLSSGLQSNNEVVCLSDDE

In test [2] the target is T2, TRB1-Myc (Arabidopsis thaliana), Q8VWK4.
T2 chain: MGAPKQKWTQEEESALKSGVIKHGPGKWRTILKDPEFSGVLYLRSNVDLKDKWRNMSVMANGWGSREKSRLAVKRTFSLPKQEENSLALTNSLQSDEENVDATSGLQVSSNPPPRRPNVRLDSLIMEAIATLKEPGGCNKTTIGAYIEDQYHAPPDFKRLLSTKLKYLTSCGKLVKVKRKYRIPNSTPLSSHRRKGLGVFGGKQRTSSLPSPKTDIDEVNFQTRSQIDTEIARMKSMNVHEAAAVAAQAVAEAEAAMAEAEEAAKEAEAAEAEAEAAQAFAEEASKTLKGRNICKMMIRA
In words: co-IP, anti-FLAG, crossed lines. The conditions noted are these: remark: other sources report otherwise.

In test [3] the target is MORPHEUS MOLECULE 1 (MOM1) (Arabidopsis thaliana) (UniProt Q9M658). In words: IP-MS, pPHD1:PHD1-FLAG line.
Test [4] deals with T3, PIAL2 (Arabidopsis thaliana) (UniProt F4JYG0).
T3 sequence: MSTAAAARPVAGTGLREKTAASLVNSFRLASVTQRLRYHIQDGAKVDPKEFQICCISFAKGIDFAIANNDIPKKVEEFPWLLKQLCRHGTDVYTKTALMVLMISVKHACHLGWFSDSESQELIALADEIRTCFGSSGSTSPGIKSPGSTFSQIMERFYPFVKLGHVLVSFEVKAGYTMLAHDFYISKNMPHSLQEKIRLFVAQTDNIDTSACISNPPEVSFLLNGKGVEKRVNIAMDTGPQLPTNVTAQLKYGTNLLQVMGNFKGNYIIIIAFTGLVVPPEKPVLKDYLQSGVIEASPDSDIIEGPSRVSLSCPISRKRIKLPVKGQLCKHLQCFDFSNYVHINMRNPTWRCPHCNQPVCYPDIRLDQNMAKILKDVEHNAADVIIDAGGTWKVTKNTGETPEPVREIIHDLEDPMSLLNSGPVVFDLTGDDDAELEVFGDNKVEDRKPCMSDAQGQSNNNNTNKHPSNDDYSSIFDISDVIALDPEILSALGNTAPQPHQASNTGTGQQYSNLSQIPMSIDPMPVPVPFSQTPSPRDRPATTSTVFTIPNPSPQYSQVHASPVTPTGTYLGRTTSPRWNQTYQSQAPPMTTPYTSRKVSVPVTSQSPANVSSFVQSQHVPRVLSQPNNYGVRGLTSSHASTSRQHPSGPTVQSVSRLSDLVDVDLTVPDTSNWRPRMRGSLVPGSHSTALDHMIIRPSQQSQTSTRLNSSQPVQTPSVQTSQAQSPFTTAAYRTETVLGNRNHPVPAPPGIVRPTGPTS
Kind of test: IP-MS, pPHD1:PHD1-FLAG line.

Test [5] deals with Myc-JMJ14 (Arabidopsis thaliana), Q8GUI6. In words: co-IP of FIG. 22A. The conditions noted are these: remark: other sources report otherwise.
Test [6] has as its target AT4G20400.1 JMJ14 (Arabidopsis thaliana), Q8GUI6. In words: IP-MS, pTRB:TRB-FLAG lines. The conditions noted are these: remark: other sources report otherwise.
The target of test [7] is Myc-JMJ14 (Arabidopsis thaliana), Q8GUI6. Kind of test: co-IP (FLAG-IP, anti-Myc Western), F2 crossed lines. The following applies: remark: other sources report otherwise.
The target of test [8] is T4, AT2G17540.2 TRBIP2 (Arabidopsis thaliana).
T4 sequence: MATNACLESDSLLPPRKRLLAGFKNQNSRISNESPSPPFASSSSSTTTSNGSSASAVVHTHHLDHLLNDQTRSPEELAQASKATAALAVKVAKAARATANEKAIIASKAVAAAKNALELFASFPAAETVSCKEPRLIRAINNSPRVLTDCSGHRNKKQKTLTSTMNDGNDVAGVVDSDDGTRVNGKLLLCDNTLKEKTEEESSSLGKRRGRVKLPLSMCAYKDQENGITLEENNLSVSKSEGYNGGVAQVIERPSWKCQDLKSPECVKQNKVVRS
Kind of test: IP-MS.

Test [9] deals with T5, AT4G35510.1 TRBIP1 (Arabidopsis thaliana).
T5 sequence: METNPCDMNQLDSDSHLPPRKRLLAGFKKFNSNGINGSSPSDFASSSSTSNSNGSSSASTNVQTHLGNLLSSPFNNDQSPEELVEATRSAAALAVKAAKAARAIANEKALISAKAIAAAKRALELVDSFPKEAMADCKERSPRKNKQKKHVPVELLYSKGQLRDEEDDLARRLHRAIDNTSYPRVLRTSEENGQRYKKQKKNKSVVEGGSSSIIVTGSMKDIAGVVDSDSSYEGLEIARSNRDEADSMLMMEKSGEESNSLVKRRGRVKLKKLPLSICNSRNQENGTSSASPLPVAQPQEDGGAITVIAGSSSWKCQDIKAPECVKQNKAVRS
Kind of test: IP-MS.

These are yes or no findings as the source states them, for the method shown. For some of these results: Binding seen in cells or lysates may run through a third protein. Some binding calls cover weakened binding; strength is not graded here. Sequences can lack the tags named with a protein.

B1: JMJ14-FLAG, Q8GUI6 1-954 (enzyme, Arabidopsis thaliana, UniProt Q8GUI6 1-954, looked up, not shown: small tags and cut ends)
chain: MDQLASLAESVAMEEDSEKQSIKGESSLEPDSTPSSPKITARWNPSEACRPLVDDAPIFYPTNEDFDDPLGYIEKLRSKAESYGICRIVPPVAWRPPCPLKEKKIWENSKFPTRIQFIDLLQNREPIKKSTKTKKRKRRRISKIGYTRRKRDSGCDTASSGSSDSEGKFGFQTGPDFTLEEFQKYDEYFKECYFQSEDHPGSKASENKKFKPKVKDLEGEYWRIVEQATDEVEVYYGADLETKKFGSGFPKYKPGYPISEADQYSQCGWNLNNLSRLPGSVLAFESCDISGVIVPWLYVGMCFSTFCWHVEDHHLYSMNYLHTGDPKVWYGIPGNHAESFENVMKKRLPDLFEEQPDLLHQLVTQLSPRILKEEGVPVYRAVQRSGEFILTFPKAYHSGFNCGFNCAEAVNVAPVDWLVHGQNAVEGYSKQRRKSSLSHDKLLLGAAMEATYCLWELSLSKKKTPVIARWKRVCSEDGLLTKAVKKRVQMEEERLNHLQDGFSLRKMEGDFDNKRERECFLCFYDLHMSASSCKCSPNRFACLIHAKDLCSCESKDRYILIRHTLDELWALVRALEGDLDAIDLWASKCRDQYPSQHPRAREYAYLKSAPCIKSRGSSKVQQREQNNLQLVSERLQSDLTSNKEVQLKQDGDSDVNRHGHESERNHVHGITDKSAVTDVKLGVGGKFDEKKISVESQNPHSVSDVGCSELAKKVDGCLGGKDQNAATNRLSLSVELLSSGSLVVKKLWCSKQAIYPKGFKSRVKFLSVLDPTNLTNYISEVLDAGLLGPLFRVSVEDYPTENFSNVSAEKCWQMVTQRLKLEIIKKCDQPVSSLTSLQPLESINGLEMFGFLSPHVIKVVEALDPKHQLEEYWNQKAVKLFGAEPIKEGEKDDTEKGGASDPSLDRDTRLLRGLLKKATPEELVMMHGLLCGETRNTELKEELSTLVDKMEISP
With B1, the binding result in test [1] and in test [2] was “binds” each time.

B2: PHD1-FLAG (protein, not shown: small tags and cut ends)
chain: MSLHVKGPVCQTCGDIGFEEALVFCDSCMFESIHRYCLGITPIPFTEYITWICEDCDNSESDSDCNEVDQTVKKKKKSRNQPLVVLAEDNVLQEPLEGSKREESSCSRKPHELTCLDGNGESVLEAADSSSVPDHSSCTSKRKEVDQTANLGHILERSEKKKKKKKKKKSINHSPPVLAVEDHELQGTTNVVEPVEVSSSSPTKETMESKRQESSDSRKPHELTCLVGDSETANSSSVPEHNSCAVKKRKLSSGNKQIQLADGSSSCRVAESNMPLTLTSRNYRAQPIKIPIWRGLMSVKGGNSCTMDGIVAHVSSLACPKVHETASSLKGRLSAEILPRLEVWPKTFLKNGGPKDESVALFFFPSSESNDEKVFDSLVDKMKKNDSAMRCVLNDAELLLFTSYMLPKDSWTFNSKYYLWGVFKPRQTSRY
For B2, the binding entry in test [3] and in test [4] was “binds” each time.

B3: FLAG-TRB1, Q8VWK4 1-300 (protein, not shown: small tags and cut ends)
chain: MGAPKQKWTQEEESALKSGVIKHGPGKWRTILKDPEFSGVLYLRSNVDLKDKWRNMSVMANGWGSREKSRLAVKRTFSLPKQEENSLALTNSLQSDEENVDATSGLQVSSNPPPRRPNVRLDSLIMEAIATLKEPGGCNKTTIGAYIEDQYHAPPDFKRLLSTKLKYLTSCGKLVKVKRKYRIPNSTPLSSHRRKGLGVFGGKQRTSSLPSPKTDIDEVNFQTRSQIDTEIARMKSMNVHEAAAVAAQAVAEAEAAMAEAEEAAKEAEAAEAEAEAAQAFAEEASKTLKGRNICKMMIRA
Consider B3, for which the binding entry in [5], in [6] and in test [7] was “binds” in each case.

B4: FLAG-TRB1 (protein, not shown: small tags and cut ends)
chain: MGAPKQKWTQEEESALKSGVIKHGPGKWRTILKDPEFSGVLYLRSNVDLKDKWRNMSVMANGWGSREKSRLAVKRTFSLPKQEENSLALTNSLQSDEENVDATSGLQVSSNPPPRRPNVRLDSLIMEAIATLKEPGGCNKTTIGAYIEDQYHAPPDFKRLLSTKLKYLTSCGKLVKVKRKYRIPNSTPLSSHRRKGLGVFGGKQRTSSLPSPKTDIDEVNFQTRSQIDTEIARMKSMNVHEAAAVAAQAVAEAEAAMAEAEEAAKEAEAAEAEAEAAQAFAEEASKTLKGRNICKMMIRA
In the case of B4, the binding result in test [8] and in test [9] was “binds” in each case.

B5: FLAG-TRB3, Q9M2X3 1-295 (protein, not shown: small tags and cut ends)
chain: MGAPKLKWTPEEETALKAGVLKHGTGKWRTILSDPVYSTILKSRSNVDLKDKWRNISVTALWGSRKKAKLALKRTPLSGSRQDDNATAITIVSLANGDVGGQQIDAPSPPAGSCEPPRPSTSVDKIILEAITSLKRPFGPDGKSILMYIEENFKMQPDMKRLVTSRLKYLTNVGTLVKKKHKYRISQNYMAEGEGQRSPQLLLEGNKENTPKPEENGVKNLTKSQVGGEVMIMGMTEKEAAAAAARAVAEAEFAMAEAEEAAREADKAEAEAEAAHIFAKAAMKAVKYRMHSQTR
For the molecule B5, the binding result in test [5], in test [6] and in test [7] was “binds” each time.

B6: FLAG-TRB3 (protein, not shown: small tags and cut ends)
chain: MGAPKLKWTPEEETALKAGVLKHGTGKWRTILSDPVYSTILKSRSNVDLKDKWRNISVTALWGSRKKAKLALKRTPLSGSRQDDNATAITIVSLANGDVGGQQIDAPSPPAGSCEPPRPSTSVDKIILEAITSLKRPFGPDGKSILMYIEENFKMQPDMKRLVTSRLKYLTNVGTLVKKKHKYRISQNYMAEGEGQRSPQLLLEGNKENTPKPEENGVKNLTKSQVGGEVMIMGMTEKEAAAAAARAVAEAEFAMAEAEEAAREADKAEAEAEAAHIFAKAAMKAVKYRMHSQTR
As to B6, the binding result in test [8] is “binds”.
